Reference: paper PMC10014584

T1: FLAG-STING (mouse) (UniProt Q3TBT3)
T1 sequence: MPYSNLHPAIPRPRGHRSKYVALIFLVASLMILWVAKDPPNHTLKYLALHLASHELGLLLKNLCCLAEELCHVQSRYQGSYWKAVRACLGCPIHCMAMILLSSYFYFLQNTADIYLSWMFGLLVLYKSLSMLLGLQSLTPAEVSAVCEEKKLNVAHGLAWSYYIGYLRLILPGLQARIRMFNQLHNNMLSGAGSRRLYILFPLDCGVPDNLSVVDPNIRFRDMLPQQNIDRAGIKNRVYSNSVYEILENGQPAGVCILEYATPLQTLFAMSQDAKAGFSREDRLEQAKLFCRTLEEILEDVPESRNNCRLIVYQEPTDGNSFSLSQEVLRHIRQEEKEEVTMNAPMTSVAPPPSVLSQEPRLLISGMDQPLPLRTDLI

B1: Tsg101 (protein, UniProt Q61187 1-391)
chain: MAVSESQLKKMMSKYKYRDLTVRQTVNVIAMYKDLKPVLDSYVFNDGSSRELVNLTGTIPVRYRGNIYNIPICLWLLDTYPYNPPICFVKPTSSMTIKTGKHVDANGKIYLPYLHDWKHPRSELLELIQIMIVIFGEEPPVFSRPTVSASYPPYTATGPPNTSYMPGMPSGISAYPSGYPPNPSGYPGCPYPPAGPYPATTSSQYPSQPPVTTVGPSRDGTISEDTIRASLISAVSDKLRWRMKEEMDGAQAELNALKRTEEDLKKGHQKLEEMVTRLDQEVAEVDKNIELLKKKDEELSSALEKMENQSENNDIDEVIIPTAPLYKQILNLYAEENAIEDTIFYLGEALRRGVIDLDVFLKHVRLLSRKQFQLRALMQKARKTAGLSDLY
B2: Vps4b (protein, UniProt P46467 1-444)
chain: MASTNTNLQKAIDLASKAAQEDKAGNYEEALQLYQHAVQYFLHVVKYEAQGDKAKQSIRAKCTEYLDRAEKLKEYLKKKEKKPQKPVKEEQSGPVDEKGNDSDGEAESDDPEKKKLQNQLQGAIVIERPNVKWSDVAGLEGAKEALKEAVILPIKFPHLFTGKRTPWRGILLFGPPGTGKSYLAKAVATEANNSTFFSISSSDLVSKWLGESEKLVKNLFQLARENKPSIIFIDEIDSLCGSRSENESEAARRIKTEFLVQMQGVGVDNDGILVLGATNIPWVLDSAIRRRFEKRIYIPLPEAHARAAMFRLHLGSTQNSLTEADFQELGRKTDGYSGADISIIVRDALMQPVRKVQSATHFKKVRGPSRADPNCIVNDLLTPCSPGDPGAIEMTWMDVPGDKLLEPVVSMWDMLRSLSSTKPTVNEQDLLKLKKFTEDFGQEG
B3: Vps4a (protein, UniProt Q8VEJ9 1-437)
chain: MTTSTLQKAIDLVTKATEEDKAKNYEEALRLYQHAVEYFLHAIKYEAHSDKAKESIRAKCMQYLDRAEKLKDYLRNKEKHGKKPVKENQSEGKGSDSDSEGDNPEKKKLQEQLMGAVVMEKPNIRWNDVAGLEGAKEALKEAVILPIKFPHLFTGKRTPWRGILLFGPPGTGKSYLAKAVATEANNSTFFSVSSSDLMSKWLGESEKLVKNLFELARQHKPSIIFIDEVDSLCGSRNENESEAARRIKTEFLVQMQGVGNNNDGTLVLGATNIPWVLDSAIRRRFEKRIYIPLPEEAARAQMFRLHLGSTPHNLTDANIHELARKTEGYSGADISIIVRDSLMQPVRKVQSATHFKKVCGPSRTNPSVMIDDLLTPCSPGDPGAIEMTWMDVPGDKLLEPVVCMSDMLRSLATTRPTVNADDLLKVKKFSEDFGQES

Target: T1, FLAG-STING (mouse)
Test: affinity purification with mass spectrometry; FLAG-STING immunoprecipitated with anti-FLAG M2 Affinity Gel from lysates of reconstituted Sting-/- MEFs before and after DMXAA for 3 h; 50 mM HEPES-NaOH pH 7.2, 150 mM NaCl, 5 mM EDTA, 1% Triton X-100, overnight at 4 °C; eluted with FLAG peptide; proteins whose amount increased after stimulation and that are annotated as lysosome were selected

binding, binds:
B1
B2
B3

No constants are given. Whether binding was seen depends on the method and setting. In cells and extracts the contact can be indirect. A yes stands for co-enrichment or nearness to the bait. Other partners may have been found. Sequences can lack the tags named with a protein.
